# Test results from PubChem BioAssay AID1688 (National Center for Advancing Translational Sciences (NCATS), 2009).
# “And” between values parts separate entries of the source, which are not always exact repeats. Identical values can stand only once. About 2,400 (1.1%) of roughly 220,000 compounds were called active. The shares of active, inactive and inconclusive entries below differ from those in the screen. The call rests on the fitted dose curve; in most records, active means well fitted inhibition curve with a large enough effect; inconclusive means small, poorly fitted or top-dose-only effect, or effect the other way; inactive means no such curve, though single readings can be large or run the other way. A potency beside an inconclusive call is a rough fit, not a confirmed value.
# Test: qHTS Multiplex Assay to Identify Dual Action Probes in a Cell Model of Huntington: Aggregate Formation (GFP); further: nearly all actives have a fitted effect of over 60% in size
# Conditions: PC12 HttQ103-GFP aggregates, Acumen cytometry, 40 h; activity change, negative = inhibition: at 46.1 µM (top of the series) unless noted
# Summary of the method: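 Inducible Q103 Huntingtin exon 1–GFP PC12 line, 1500 cells/well in phenol red free DMEM with 5% equine and 5% calf serum. Tebufenozide 100 nM induced expression; compounds titrated; aggregates quantified by cytometry.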
# On the % scale 0 is the no-effect control and ±100 the full control effect; potency means the concentration at half of the fitted maximal effect.
Compound,Potency,"activity change, negative = inhibition"
Cc1ccc(C)c2c1[nH]c1ccccc12,inactive,–
O=C(CCCSc1nnc(SCCCC(=O)c2ccc(F)cc2)s1)c1ccc(F)cc1,"inconclusive: 10 µM [inhibitor, partial curve]",–
COc1cc(NC(=O)Nc2ccc(Cl)c(Cl)c2)c(C(=O)O)cc1OC,–,inactive: 9.5% [at 9.22 µM]
CCOC(=O)c1sc2nc(CC(=O)OC)nc(N3CCN(c4ccc(OC)cc4)CC3)c2c1C,inactive,–
CCN1C(=O)CSc2ccc(C(=O)NCc3ccco3)cc21,inactive,–
O=[N+]([O-])c1ccc(-c2nc(-c3cccs3)c(-c3cccs3)[nH]2)cc1,"inconclusive: 22.4 µM [inhibitor, single point]",–
O=[N+]([O-])c1cc(S(=O)(=O)/N=C(/c2ccccc2)N2CCOCC2)ccc1Cl,inactive,–
Cc1nc2cc(NCc3nc4ccccc4n3Cc3ccccc3)ccc2n1C,"inconclusive: 5.62 µM [inhibitor, single point]",–
COc1cccc(-c2csc(N3CCN(C(=O)NC45CC6CC(CC(C6)C4)C5)CC3)n2)c1,"inconclusive: 35.5 µM [inhibitor, single point]",–
O=C(c1cccs1)N1CCC(c2nc(-c3ccc(S(=O)(=O)N4CCOCC4)cc3)no2)CC1,"inconclusive: 12.6 µM [inhibitor, partial curve]",–
O=C(CCCSc1nnnn1-c1cccc2ccccc12)c1ccc(F)cc1,"inconclusive: 12.6 µM [inhibitor, single point]",–
COc1ccc(-c2nnn(CC(=O)N3CCOCC3)n2)cc1,–,inactive: 8.39% [at 1.84 µM]
COc1ccc(NC(=O)Nc2cc(F)ccc2C)cc1,"inconclusive: 11.2 µM [inhibitor, single point]",–
CCOC(=O)/C(=C/C=C1\Sc2ccccc2N1CC)C(C)=O,inactive,–
Cc1cc(O)cc(O)c1-c1onc(C(F)(F)F)c1-c1cscn1,"inconclusive: 14.1 µM [inhibitor, single point]",–
O=C(CN(Cc1ccc(Cl)c(Cl)c1)S(=O)(=O)c1ccccc1)N/N=C\c1ccc2c(c1)OCO2,"inconclusive: 35.5 µM [inhibitor, single point]",–
Cc1cc(NC(=O)CSc2nnc(-c3ccco3)n2Cc2ccco2)no1,inactive,–
O=C1NC(=S)S/C1=C\c1ccc(SCc2ccccc2)o1,"inconclusive: 10 µM [inhibitor, single point]",–
CCCCCc1cc(O)c2c(C)cc(=O)oc2c1,active: 25.1 µM,–
CCOC(=O)c1c(C)n(C)c2ccc(OCC(O)Cn3nc(C)c(Br)c3C)cc12 (centres undefined),"inconclusive: 15.8 µM [inhibitor, single point]",–
Cc1cc(NC(=O)c2c(F)cccc2F)n(-c2nc3ccccc3[nH]2)n1,"inconclusive: 35.5 µM [inhibitor, single point]",–
CN(C)CCCN(C(=O)CCc1ccccc1)c1nc2ccc(Br)cc2s1,"inconclusive: 35.5 µM [inhibitor, single point]",–
Cc1ccc(S(=O)(=O)N(C)c2ccc3ccccc3c2)cc1,"inconclusive: 10 µM [inhibitor, partial curve]",–
COc1ccc(C2=C(C=C(C#N)C#N)C(c3ccccc3C)c3ccccc3O2)cc1OC (centres undefined),"inconclusive: 3.16 µM [activator, single point]",–
Cc1ccc(S(=O)(=O)N(C(=O)c2ccncc2)c2ccc(OC(=O)c3ccncc3)c3ccccc23)cc1,"inconclusive: 25.1 µM [inhibitor, single point]",–

Compound,Potency,"activity change, negative = inhibition"
CCOc1cc(C(=O)OCC(=O)Nc2cc(C)on2)ccc1OCC(C)C,"inconclusive: 14.1 µM [activator, partial curve]",–
C=CCOn1c(C)c(C(C)=O)c2c3no[n+]([O-])c3ccc21,active: 22.4 µM,–
CCCCCCN1CC(O)=C(c2ccccc2)C1=N,"inconclusive: 11.2 µM [activator, partial curve]",–
CCOC(=O)N1CCN(CCC(=O)c2ccc(Cl)cc2)CC1,"inconclusive: 12.6 µM [inhibitor, single point]",–
Cc1ccnc(N2CCN(C(=O)CSc3nc4ccccc4nc3N3CCC(C)CC3)CC2)c1,"inconclusive: 17.8 µM [inhibitor, single point]",–
CCS(=O)(=O)N1CCN(c2ccc(Cl)cc2[N+](=O)[O-])CC1,inactive,–
CC(=O)c1ccc(NC(=O)C2(S(=O)(=O)c3ccccc3)CC2)cc1,"inconclusive: 22.4 µM [activator, single point]",–
Cc1cc2nccc(-c3ccncc3)n2n1,"inconclusive: 12.6 µM [inhibitor, single point]",–
N=c1n(CC(=O)O)c2ccccc2n1Cc1ccccc1Cl,inactive,–
CCC(NC(C)C)C(O)c1ccc(O)c(O)c1 (centres undefined),"inconclusive: 11.2 µM [activator, partial curve]",–
CSc1nc(N)nc(SCC(=O)C23CC4CC(CC(C4)C2)C3)c1C#N,"inconclusive: 35.5 µM [inhibitor, single point]",–
O=C(CN1CCc2ccccc2C1)N1CCN(S(=O)(=O)c2ccccc2)CC1,inactive,–
O=C(CCl)Nc1cc(SCC(O)CO)cc([N+](=O)[O-])c1 (centres undefined),active: 2.82 µM,–
COc1ccc(Sc2ccc(/C=C3\C(=O)NN(c4ccccc4)C3=O)o2)cc1,"inconclusive: 35.5 µM [activator, single point]",–
CN(c1ccccc1)S(=O)(=O)c1cccc(C(=O)NCCc2ccc(O)c(O)c2)c1,"inconclusive: 5.62 µM [activator, full curve, poor fit]",–
CN1CCc2cccc3c2[C@H]1Cc1ccc(O)c(O)c1-3,"inconclusive: 35.5 µM [activator, single point]",–
Cc1ccc2cc(C)c3nnc(SCC(=O)Nc4nc5c(s4)CCCC5)n3c2c1C,inactive,–
COc1cc(-n2nc(C)c3c2OC(N)=C(C#N)C3c2ccccc2)c(Cl)c(Br)c1O (centres undefined),"inconclusive: 35.5 µM [inhibitor, single point]",–
CCCCn1c(N)c(NCC(C)C)c(=O)[nH]c1=O,inactive,–
Cc1cc(C)c(NC(=O)Nc2ccccc2)c(Cl)c1,inactive,–
COc1cc(/C=C2\SC(=Nc3ccc(O)cc3)NC2=O)cc(OC)c1O,inactive,–
COc1cc(-c2nnc3sc(C4CCCCC4)nn23)cc(OC)c1OC,"inconclusive: 0.562 µM [activator, single point]",–
CC(=O)OCCNC(=O)c1cccnc1,–,inactive: 8.74% [at 9.22 µM]
Cc1ccc(NC(=O)c2cc(N3C(=O)C=CC3=O)ccc2N2CCOCC2)cc1Cl,"inconclusive: 15.8 µM [inhibitor, single point]",–
O=C(CSc1nnc(-c2cccs2)n1CC1CCCO1)c1cc2ccccc2o1 (centres undefined),inactive,–

Compound,Potency,"activity change, negative = inhibition"
Cc1cc[n+](-c2nc3ccccc3nc2[N-]S(=O)(=O)c2ccccc2)cc1,"inconclusive: 5.62 µM [inhibitor, single point]",–
CC(C)C(=O)NC(=S)/C=C1/N(C)c2ccccc2C1(C)C,"inconclusive: 11.2 µM [inhibitor, partial curve]",–
CC(C)OC(=O)c1c(NC(=O)Cn2cnc([N+](=O)[O-])n2)sc2c1CCCC2,inactive,–
CCOc1ccc(OCCSc2nc3ccccc3[nH]2)cc1,"inconclusive: 14.1 µM [inhibitor, single point]",–
O=C(CCCOc1ccccc1)N1CCCCC1,inactive,–
Cc1nc2ccccc2cc1OCc1ccccc1,active: 12.6 µM,–
COc1cc(/C=C(\C#N)c2nc3ccccc3s2)cc([N+](=O)[O-])c1O,"inconclusive: 31.6 µM [inhibitor, single point]",–
CCN(C(=O)COC(=O)c1cc(NS(=O)(=O)c2ccc(Cl)c([N+](=O)[O-])c2)ccc1O)C1CCCCC1,"inconclusive: 35.5 µM [activator, single point]",–
Cn1c(N)c(C(=O)c2ccc(Cl)cc2)c(=O)n(C)c1=O,active: 2.51 µM,–
Cc1nn(Cc2ccc(F)cc2)c(C)c1NC(=O)C1c2ccccc2Oc2ccccc21,"inconclusive: 35.5 µM [activator, single point]",–
CC1(C)Cc2ccccc2C(NNC(=O)c2ccncc2)=N1,inactive,–
c1cnc2c(c1)ccc1cccnc12,active: 10 µM and active: 7.94 µM,–
CC[n+]1ccccc1/C=C/c1ccc(N(C)C)cc1,active: 2.82 µM,–
N=C1CCCN1CC(=O)c1cccs1,"inconclusive: 0.562 µM [activator, full curve, poor fit]",–
Cn1c(=O)c(-c2cc(Br)ccc2N)nc2ccccc21,active: 12.6 µM,–
COc1ccccc1N=Nc1nc(-c2ccccc2)c(-c2ccccc2)[nH]1,"inconclusive: 17.8 µM [inhibitor, single point]",–
O=C(N/N=C/c1ccc(OC(F)F)cc1OC(F)F)NC1CCCCC1,"inconclusive: 35.5 µM [inhibitor, single point]",–
CCOc1ccc(C2=Nn3c(nnc3-c3ccccc3OC)SC2)cc1,"inconclusive: 14.1 µM [activator, partial curve]",–
Cc1ccc(S(=O)(=O)NCC(=O)NCc2ccncc2)cc1,inactive,–
Nc1ccc2nc(SCC(=O)N3CCOCC3)sc2c1,–,inactive: -20.6% [at 9.22 µM]
C=CCNC(=S)NNC(=O)COc1ccc(Br)cc1,"inconclusive: 2 µM [activator, partial curve]",–
Cc1ccnc(NC(=O)CCC(=O)N(CC(=O)NCCc2ccccc2)Cc2ccco2)c1,inactive,–
COc1ccc(C(C)=O)cc1COC(=O)c1ccc2ccccc2n1,inactive,–
O=C(CSc1cccc2cccc(Cl)c12)OCC(=O)N1CCN(C(=O)c2ccco2)CC1,–,inactive: -4.87% [at 9.22 µM]
